The values below come from PubChem BioAssay AID1956 (SRMLSC, 2009).

Some of the results follow. Some salts or complexes appear as unconnected parts, following the source record.

A short description of the assay: compounds boosting herpes simplex virus growth – fold increase, host cell viability (AID 1956). Also: tested in PC3 cells. As to conditions: HSV replication augmentation in cells; fold increase: measured here: primary screen fold increase 10 uM, at 10 µM, stronger effect = higher value; viability: measured here: host cell viability series, at 25 µM, stronger effect = lower value.
Take `O=C(OCCCN1CCCC1)C(O)(c1ccccc1)C1CCCCC1` (configuration not stated): the fold increase came out at 0.68.
As to `COc1ccccc1OP(C)(=O)Nc1c(C)n(C)n(-c2ccccc2)c1=O` (configuration not stated), the fold increase was 0.93.
`CC(=O)N1C2C3N(C(C)=O)C1C1N(C(C)=O)C(C(N1C(C)=O)N3C(C)=O)N2C(C)=O`: the fold increase is 1.07.
In the case of `O=[N+]([O-])c1cccc2n[nH]nc12`, the fold increase was 0.993.
To `O=[N+]([O-])c1cc([N+](=O)[O-])c(CCNc2ccccc2)c([N+](=O)[O-])c1` belongs 1.03.
`CCc1nc2c(n1)c1c(non1O)c1c2no[n+]1[O-]`: the fold increase was 0.85.
`CCc1ccc(OP(C)(=O)Nc2cccnc2)cc1` (configuration not stated): the fold increase stood at 0.94.
As for `CP(=O)(Oc1ccccc1)N1CCOC1=O` (configuration not stated), the fold increase came out at 0.99.
To `Cc1ccc(NP(=O)(Oc2ccccc2)Oc2ccccc2)nc1` belongs 0.89; to `O=[N+]([O-])c1cc([N+](=O)[O-])c(Nc2ccccn2)c([N+](=O)[O-])c1`, 0.73; to `CC(C)CC(=O)NC(Sc1ccc(Cl)cc1)C(Cl)(Cl)Cl` (configuration not stated), 0.85.
With `Nc1cc(N)c2nonc2c1[N+](=O)[O-]`, the fold increase turned out to be 0.57.
With `Cc1c(NP(C)(=O)Oc2ccc(C(C)C)cc2)c(=O)n(-c2ccccc2)n1C` (configuration not stated), the fold increase amounted to 0.95.
In the case of `Cc1c2non([O-])c-2c(C)[n+](=O)[n+]1[O-]`, the fold increase worked out at 0.95.
The result for `O=C(NC(Sc1ccncn1)C(Cl)(Cl)Cl)c1ccccc1` (configuration not stated) reads 0.8; that for `Oc1ccccc1CNc1ccccn1`, 0.93.
With `COc1ccccc1OP(C)(=O)Nc1ccc(C)cc1C` (configuration not stated), the fold increase is 0.96.
`CP(=O)(Nc1ccccn1)Oc1ccccc1` (configuration not stated): the fold increase came to 0.99.
To `CCc1ccc(OP(C)(=O)O)cc1` belongs 0.97; to `NC(=O)c1cc([N+](=O)[O-])cc([N+](=O)[O-])c1N`, 0.87.
For `Cc1ccc(N/C(=N/P(=O)(N2CCOCC2)N2CCOCC2)N2CCOCC2)cc1`, the fold increase worked out at 0.99.
To `COc1ccccc1OP(C)(=O)Nc1ccc(Br)cc1` (configuration not stated) belongs 0.91; to `Cc1ccc(OP(=O)(Nc2nccs2)Oc2ccc(C)cc2)cc1`, 0.93; to `COc1ccc(OP(C)(=O)Nc2ccccn2)cc1` (configuration not stated), 0.8.
Turning to `COc1ccccc1OP(=O)(Nc1ccc(C)cn1)Oc1ccccc1OC`, the fold increase is 1.
`CN(C)CCOC(=O)C(O)(c1ccccc1)C1CCCC1` (configuration not stated): the fold increase came out at 0.7.
On to `Clc1ccc(Cl)c(NC2=NCC(CBr)S2)c1` (configuration not stated), for which the fold increase worked out at 1.
Turning to `CN1CCCC(OC(=O)C(c2ccccc2)c2ccccc2)C1` (configuration not stated), the fold increase came to 0.71.
The result for `Cc1nc2ccc3ccccc3c2o1.O=[N+]([O-])c1cc([N+](=O)[O-])c(O)c([N+](=O)[O-])c1` reads 1.01.
Regarding `CCN(N=Nc1nonc1N)c1nonc1N`, the fold increase worked out at 1.12.
The result for `CP(=O)(OCCOc1ccccc1)OCCOc1ccccc1` reads 0.97; that for `CP(=O)(Nc1ccc(Cl)cc1Cl)Oc1ccccc1` (configuration not stated), 0.96.
Regarding `Nc1cccc2ccc([As](=O)(O)O)cc12`, the fold increase was determined as 0.98.
For the compound `O=C(O)c1ccccc1[As](=O)(O)O`, the fold increase came to 1.11.
Regarding `CC(=O)Nc1ccc([As](=O)(O)O)cc1`, the fold increase was found to be 1.1.
Regarding `Cc1cc(C)cc(OP(C)(=O)Nc2cccc(C(F)(F)F)c2)c1` (configuration not stated), the fold increase stood at 1.03.
As to `O=P(Nc1nc2ccc(Cl)cc2s1)(c1ccccc1)c1ccccc1`, the fold increase turned out to be 0.97.
In the case of `CN(C(=O)Cc1ccc(Cl)c(Cl)c1)[C@H]1CCCC[C@@H]1N1CCCC1`, the fold increase amounted to 0.74.
Take `Cc1ccc(NP(=O)(Oc2ccccc2F)Oc2ccccc2F)nc1`: the fold increase came out at 0.98.
The result for `COc1ccccc1OP(C)(=O)Nc1ccc(C)c(C)c1` (configuration not stated) reads 0.95; that for `CCOP(=O)(Nc1ccccc1)OCC`, 1.06; that for `Cc1cc(SC(NC(=O)c2ccc(F)cc2)C(Cl)(Cl)Cl)ncn1` (configuration not stated), 0.95.
Turning to `COc1ccc(OP(C)(=O)Nc2ccccc2Br)cc1` (configuration not stated), the fold increase was determined as 1.
For `CC(=O)NC(SC(=S)N(CC(C)C)CC(C)C)C(Cl)(Cl)Cl` (configuration not stated), the fold increase turned out to be 1.02.
Take `Cc1ccc(OP(=O)(Nc2ccccn2)Oc2ccc(C)cc2)cc1`: the fold increase was found to be 0.9.
To `COC(=O)c1cc2c(s1)N=C(c1ccccc1)N(C)P2(=O)N1CCOCC1` (configuration not stated) belongs 0.98.
As to `CCC(=O)N1C2C3N(C(=O)CC)C1C1N(C(=O)CC)C(C(N1C(=O)CC)N3C(=O)CC)N2C(=O)CC`, the fold increase is 0.96.
As to `CCN(CC)CCCOC(=O)C(O)(c1ccccc1)C1CCCCC1` (configuration not stated), the fold increase stood at 0.94.
Regarding `CP(=O)(Nc1ccccc1)Oc1ccc(F)cc1` (configuration not stated), the fold increase was 0.93.
To `CN(C)C(=O)Oc1noc2ccccc12` belongs 1.08; to `O=c1c2cc([N+](=O)[O-])ccc2[nH]c2c([N+](=O)[O-])cc([N+](=O)[O-])cc12`, 0.65; to `CCCCCOc1ccc(NP(C)(=O)Oc2ccc(Cl)cc2Cl)cc1` (configuration not stated), 0.95.
`Cc1ccccc1OP(=O)(Nc1ccccn1)Oc1ccccc1C`: the fold increase amounted to 0.89.
As for `O=C(NC1CCS(=O)(=O)C1)NP(=S)(Oc1ccccc1)Oc1ccccc1` (configuration not stated), the fold increase came to 1.05.
`CCNC(=S)/N=C(\N)N[N+](=O)[O-]`: the fold increase is 1.03.
For the compound `Cc1ccc(NP(=O)(Oc2cccc(C)c2)Oc2cccc(C)c2)nc1`, the fold increase amounted to 0.91.
On to `CCOC(=O)NC(Sc1ccccc1)C(Cl)(Cl)Cl` (configuration not stated), for which the fold increase worked out at 0.76.
For the compound `c1ccc(-c2nn[nH]n2)c(-c2nn[nH]n2)c1`, the fold increase stood at 1.
For the compound `CCOC(=O)c1ccc(NP(C)(=O)Oc2ccc(F)cc2)cc1` (configuration not stated), the fold increase came to 0.98.
On to `COc1ccc(OP(C)(=O)Nc2ccc(SC(F)(F)F)cc2)cc1` (configuration not stated), for which the fold increase worked out at 0.9.
For the compound `O=C(OC1CN2CCC1CC2)c1ccc([N+](=O)[O-])cc1` (configuration not stated), the fold increase was determined as 0.85.
`C[C@@H]1C=CCP(=O)(Oc2ccccc2)O1` (some centres not stated): the fold increase amounted to 0.97.
Turning to `C[C@H]1OP(=O)(Oc2ccccc2)C[C@@H]2O[C@@H]21` (some centres not stated), the fold increase was 0.795.
`CC(=O)Nc1ccc(Oc2c([N+](=O)[O-])cc([N+](=O)[O-])cc2[N+](=O)[O-])cc1`: the fold increase was 1.03.
Regarding `COc1ccc2c(c1O)-c1c(O)c(OC)cc3c1[C@H](C2)[N+](C)(C)CC3.O=[N+]([O-])c1cc([N+](=O)[O-])c([O-])c([N+](=O)[O-])c1[O-]`, the fold increase came out at 0.86.
For the compound `CC(=O)Nc1ccc([As](=O)(O)O)c(O)c1`, the fold increase was determined as 0.98.
`CCOc1ccc(C2=NCC(CBr)S2)cc1` (configuration not stated): the fold increase is 0.96.
The result for `O=P1(Nc2nc3ccc(Cl)cc3s2)COc2ccccc2O1` (configuration not stated) reads 1.09; that for `CP(=O)(Nc1ccccc1F)Oc1ccccc1` (configuration not stated), 0.96; that for `CC(C)c1ccc(OP(C)(=O)Nc2ccc(SC(F)(F)F)cc2)cc1` (configuration not stated), 0.86.
Take `CC(C)(C)C(=O)NC(Sc1ccccc1)C(Cl)(Cl)Cl` (configuration not stated): the fold increase was 0.95.
Take `CP(=O)(Nc1ccc2c(c1)OCCO2)Oc1ccccc1` (configuration not stated): the fold increase was found to be 1.09.
`Cc1ccccc1NP(C)(=O)Nc1ccccc1C`: the fold increase worked out at 1.03.
As to `CP(=O)(Nc1ccc(SC(F)(F)F)cc1)Oc1ccc(F)cc1` (configuration not stated), the fold increase was determined as 0.91.
Regarding `O=P(Nc1nccs1)(c1ccccc1)c1ccccc1`, the fold increase was determined as 0.91.
In the case of `CC(C)C(=O)NC(Sc1ccccc1)C(Cl)(Cl)Cl` (configuration not stated), the fold increase stood at 1.05.
`CCOP(C)(=S)SCC(=O)NC(C)(CC)C(=O)O` (configuration not stated): the fold increase was determined as 0.98.
For `c1nnnn1CCn1cnnn1`, the fold increase is 0.9.
Turning to `CC(=O)NC(SC(=S)N(C)C)C(Cl)(Cl)Cl` (configuration not stated), the fold increase came to 0.92.
With `O=[N+]([O-])c1ccc(OP2(=O)COCCO2)cc1` (configuration not stated), the fold increase turned out to be 1.15.
On to `O=[N+]([O-])c1ncn(CCn2cnc([N+](=O)[O-])n2)n1`, for which the fold increase was 0.88.
Turning to `Cc1cc(-c2cccc3ccccc23)c(C)cn1.O=[N+]([O-])c1cc([N+](=O)[O-])c(O)c([N+](=O)[O-])c1`, the fold increase is 0.83.
To `O=[N+]([O-])c1cc([N+](=O)[O-])c(NCC2CCS(=O)(=O)C2)c([N+](=O)[O-])c1` (configuration not stated) belongs 0.68.
As for `O=[As](O)(c1ccccc1)c1ccc(O)cc1`, the fold increase is 1.09.
`Nc1ccc([As](=O)(O)c2ccc([N+](=O)[O-])cc2)cc1`: the fold increase is 0.96.
Consider `O=C(OC1CN2CCC1CC2)c1cccc(Cl)c1` (configuration not stated), for which the fold increase is 0.99.
In the case of `COc1ccc(OP(C)(=O)Nc2cccc(Br)c2)cc1` (configuration not stated), the fold increase was found to be 0.98.
Regarding `O=P(Nc1ccccn1)(c1ccc(Br)cc1)c1ccc(Br)cc1`, the fold increase amounted to 0.9.
The result for `C[C@H]1OP(=O)(Oc2ccccc2)[C@H](O)[C@H](O)[C@H]1N=[N+]=[N-]` (some centres not stated) reads 0.81; that for `O=P(Nc1nc2ccccc2s1)(c1ccccc1)c1ccccc1`, 0.91.
`CN(C)CCOC(=O)C(O)(c1ccccc1)C1CCCCC1` (configuration not stated): the fold increase came out at 1.01.
Take `COc1ccc(NP(C)(=O)Oc2ccccc2OC)cc1` (configuration not stated): the fold increase was 1.01.
